# Test results: PubChem BioAssay AID1347426 (Functional Genomics Laboratory (NCATS/FGL), 2020)
# Hit rate of the full screen: of about 31,000 sequences, about 1,400 (4.5%) were called active.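 The calls were made as follows: active = median seed-adjusted z-score above 1 or below -1; inactive = the rest.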 The list shows a part of the results.
# Assay: Novel Modifiers of Survival Motor Neuron (SMN) Protein: Gene Identification via Genome-wide siRNA Screen;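 also: luminescence tracks full-length SMN protein made from the SMN2 reporter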
# Settings: HEK293T SMN2-luciferase reporter, siRNA knockdown, 72 h; actives lie on both sides
# Procedure, shortened: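 HEK293T cells stably carrying an SMN2 promoter/splicing cassette–luciferase reporter were reverse-transfected with 1 pmol siRNA per well (druggable-genome library, 3 siRNAs per gene) and grown 72 h at 37 °C. Luminescence, normalized to negative-control siRNA and log10-transformed, was scored as MAD.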
row,Sequence,median seed-adjusted z-score
1,CUACAACAUCAACACCUAUTT against OTOG,inactive: -0.344
2,ACCUCUCGGUAGUAGAUCUTT against MCHR1,inactive: -0.42
3,CAAGGGAGGUUAUAGUGAATT against ZNF479,inactive: -0.269
4,GCUUUGGGAUGACCGCUUATT against TSC22D3,inactive: 0.0129
5,GGACACUGAGUUUCUUGAATT against PNMA2,inactive: 0.629
6,CAUCUAGUGCUGUAACGGATT against RNF111,inactive: -0.0687
7,CGUGCUCUGUGGUAAACGATT against THOP1,inactive: 0.643
8,AGAGGACCCAGAUUGUCUATT against RDBP,inactive: 0.975
9,GACUGUACCGGAUCACAGATT against VAV1,inactive: 0.215
10,ACCACAACAUAGUCAAUUUTT against AUP1,inactive: 0.305
11,GAAAGUCGUGGAUUUCCUATT against TICAM2,inactive: -0.256
12,GAAGAAUGCAGAAACUGUUTT against PARG,inactive: 0
13,GCCUCUACUUCAUAGUGCUTT against GPR141,inactive: -0.777
14,GGAUCUACGUGUACGUCAATT against LPAR3,inactive: -0.3
15,AGGGCUUCAUUAAAGAAGATT against KCNA5,inactive: 0.206
16,CGGUUGCUUCAGGAACUUATT against TGFB1I1,inactive: 0.887
17,GAUAGGAUGUGACAAUGAATT against ING2,inactive: 0.126
18,CCAUAUUGGUGUUGGACGATT against ASAH2,inactive: 0.615
19,GAGUAGCAGUGAUCCUAGATT against SERINC1,inactive: -0.255
20,GGACUUCGCCUACGACUCATT against ETV4,inactive: -0.186
21,UCAGUCCUCUCACCACUUUTT against OAS1,inactive: 0.442
22,GGAGAACUACCAGAACCUUTT against ZNF74,active: 1.17

row,Sequence,median seed-adjusted z-score
1,GGAACAGCAUUAUGAUAGATT against CAB39,inactive: -0.144
2,GUACGUUACUGACAAUGAUTT against RCBTB1,inactive: 0
3,CGGUCAUAGUCAAGAUGGATT against KRT85,inactive: -0.126
4,GGACAAAGUAAAUAAUUCATT against ELK4,inactive: 0.235
5,GAAGGAGGCUGAUCCCUGATT against HLA-G,inactive: 0.0348
6,CCAUGGUACAAGUUGAUGATT against LARP4,inactive: -0.701
7,GCGCUCUACUUGUACCUCATT against GPR157,inactive: 0.152
8,GGCUGAAUUAUGACCGGAATT against PPFIA4,inactive: 0.0399
9,CCAUGCUGUCUAUAGCCUATT against TRPC5,active: -1.14
10,GAGAUGCAGUUGAUGCGAATT against LAMA2,inactive: 0.0733
11,GAAGGUGUUUCAUACGAAUTT against SIPA1L1,inactive: 0.0925
12,GGCUCUCACUGGAAUCUCUTT against SMARCAL1,inactive: -0.145
13,GCAGAGUGAAGGGAGCAAATT against DVL1,inactive: -0.814
14,GGACGAUCACGGAAAUCAUTT against PTPLB,inactive: 0.0451
15,UCGAUAUCCUAGUCUCCAATT against DHRS4,inactive: 0.263
16,GGUGCGUCAUUCUAUAACATT against DNAH11,inactive: 0.104
17,GGACUUGGAGUUUCGCAAATT against LMNB1,inactive: 0.0619
18,AGCCCACGGUCUUCCACUATT against ACPT,inactive: -0.114
19,CAACUUUGAGGUAAAGUCATT against PRPF19,inactive: -0.485
20,CGAUACAUGGUUUUCCGAUTT against ABCB1,inactive: -0.384
21,CAGCUUAAUUUUUACGCAATT against IPMK,inactive: -0.00138
22,AGUCAUCAAAGGUUUUGAATT against FKBP1B,inactive: -0.561

row,Sequence,median seed-adjusted z-score
1,CCUCCACUAUGAUCCUUAATT against HES5,inactive: -0.00853
2,GGUGUGAACUGCGAAGUGATT against NOTCH3,inactive: 0.395
3,GGAGUUGUCGUAGACUAUATT against NUP214,inactive: 0.074
4,GCCCUACAGUAAGCACUAUTT against SMYD2,inactive: -0.393
5,AAGGCAAAGUCGACCCAUATT against TSP50,inactive: 0.133
6,GGCACGGAAUGUUAACACUTT against MAP4K3,inactive: -0.49
7,CAUCUGCUCGUGGACCUCATT against PIGQ,inactive: 0.00996
8,GGUGCUACAUCCUAGAGAATT against SULF2,inactive: -0.109
9,GCUGGUCCCUUGGAUAAGATT against MED1,inactive: -0.855
10,GAUUGUUCCCAACAUUAAATT against MID2,inactive: -0.0363
11,CUAUUAACAUGGUGACAGATT against EIF4A1,active: -1.05
12,GACAAGAGAUCAUUAAAAUTT against COL16A1,inactive: -0.0496
13,GCAACGCAGGUGACACCUATT against MMP25,inactive: 0
14,CAUUGGACAUCAUAGAGUATT against ZSCAN16,inactive: -0.274
15,GGACAUCGAUUUCAACUAATT against MTMR2,inactive: 0.495
16,GAGUUGAGAUUAUCCGAAUTT against STAMBP,inactive: 0.511
17,GAUUUCAUCUUGACCGAAATT against GSTT2,inactive: 0.0298
18,CAUCGUCAAUUACAACUCATT against LHX9,inactive: 0.157
19,GAGUAACUCUUAAUCGCCUTT against LAMC1,inactive: 0.0473
20,GAUACACUCUCUUCCCGAUTT against PTAFR,inactive: 0.302
21,CUACCAAUAUGAUAGGUUATT against DDX17,inactive: 0.231
22,GCAGUUUCUUAACCACGUUTT against IFI16,inactive: -0.0178

row,Sequence,median seed-adjusted z-score
1,CAAAAAUGUCUAUUCUUGATT against TRIM27,inactive: -0.378
2,GCCUGGUGUACCUCAGUAATT against MRGPRX2,inactive: 0.0476
3,GAACAGGCCCGAGUACUAATT against GBP3,inactive: -0.864
4,CAUUAUCAGUGACUUUUCUTT against MAS1,inactive: -0.0551
5,CACUACCACUUCUACGAGATT against PLCD4,inactive: -0.4
6,AAAUGGAUGAGUUGCAAUUTT against PITX1,inactive: 0
7,GAGUCACAGAUCAAGAUUUTT against EN2,inactive: 0.319
8,ACCACUACCUGCUUAUUGATT against ZNF581,inactive: 0.486
9,GAAUGCAAUGGAUCAACUATT against ING3,inactive: 0.192
10,UGGUCUUUUUGAAUACGAUTT against CATSPER2,inactive: -0.653
11,GUAUGAGCAAGGAUACCAATT against HERC6,inactive: 0.324
12,GAAUGAGCAAUUUGACAGATT against SERPINB8,inactive: 0.371
13,GAGACCCUCUGGUUAUAGATT against FKBP11,inactive: -0.085
14,GACCCGUCUUAUUAUCUGATT against PPIL2,inactive: -0.467
15,AGAGUACGCUCAGACACUATT against RBM15B,inactive: -0.183
16,GCUUCAAUUGGUUACCGAATT against KLHL5,inactive: 0.48
17,CCUUCGUCAUGUUUCGGAATT against GRIK3,inactive: 0.128
18,GCUGGUGACUGAGUUUUCATT against NOB1,inactive: -0.0844
19,GGACGGUUACUGCUCAUUUTT against CHAF1B,inactive: 0.634
20,GGAACUCUAUGGUCAUCUATT against SSTR1,inactive: 0.285
21,GCGGAGAAAUGGAAACAUATT against TCF3,inactive: -0.0126
22,GCUUUAUCCUUUCCGUGUATT against SERPINB2,inactive: -0.0739

# Another view of some results above.
row	Sequence	median seed-adjusted z-score
14	CAUUGGACAUCAUAGAGUATT against ZSCAN16	inactive: -0.274
15	GGACAUCGAUUUCAACUAATT against MTMR2	inactive: 0.495
16	GAGUUGAGAUUAUCCGAAUTT against STAMBP	inactive: 0.511
17	GAUUUCAUCUUGACCGAAATT against GSTT2	inactive: 0.0298
18	CAUCGUCAAUUACAACUCATT against LHX9	inactive: 0.157
19	GAGUAACUCUUAAUCGCCUTT against LAMC1	inactive: 0.0473
20	GAUACACUCUCUUCCCGAUTT against PTAFR	inactive: 0.302
21	CUACCAAUAUGAUAGGUUATT against DDX17	inactive: 0.231
22	GCAGUUUCUUAACCACGUUTT against IFI16	inactive: -0.0178
1	CAAAAAUGUCUAUUCUUGATT against TRIM27	inactive: -0.378
2	GCCUGGUGUACCUCAGUAATT against MRGPRX2	inactive: 0.0476
3	GAACAGGCCCGAGUACUAATT against GBP3	inactive: -0.864
4	CAUUAUCAGUGACUUUUCUTT against MAS1	inactive: -0.0551
5	CACUACCACUUCUACGAGATT against PLCD4	inactive: -0.4
6	AAAUGGAUGAGUUGCAAUUTT against PITX1	inactive: 0
7	GAGUCACAGAUCAAGAUUUTT against EN2	inactive: 0.319
8	ACCACUACCUGCUUAUUGATT against ZNF581	inactive: 0.486
9	GAAUGCAAUGGAUCAACUATT against ING3	inactive: 0.192
10	UGGUCUUUUUGAAUACGAUTT against CATSPER2	inactive: -0.653
11	GUAUGAGCAAGGAUACCAATT against HERC6	inactive: 0.324
12	GAAUGAGCAAUUUGACAGATT against SERPINB8	inactive: 0.371
14	GACCCGUCUUAUUAUCUGATT against PPIL2	inactive: -0.467
15	AGAGUACGCUCAGACACUATT against RBM15B	inactive: -0.183
16	GCUUCAAUUGGUUACCGAATT against KLHL5	inactive: 0.48
17	CCUUCGUCAUGUUUCGGAATT against GRIK3	inactive: 0.128
18	GCUGGUGACUGAGUUUUCATT against NOB1	inactive: -0.0844
20	GGAACUCUAUGGUCAUCUATT against SSTR1	inactive: 0.285
22	GCUUUAUCCUUUCCGUGUATT against SERPINB2	inactive: -0.0739

# (further entries)

row,Sequence,median seed-adjusted z-score
1,CAUUGAUCGCCGUAGAAAATT against BCLAF1,inactive: -0.823
2,GGUCCUUACUAGCAAUGUUTT against ELF1,inactive: 0.0269
3,AGCUGCCCAUGGUCCUGAATT against SPPL2B,inactive: 0.0324
4,GUUUAUAAAAGGUAUGCUATT against AP1S3,inactive: 0.153
5,GAACAACGGAAGCUACAGATT against COPG2,inactive: -0.564
6,CGAUAGCCUGAAUCAGUAUTT against CCBL2,inactive: 0.184
7,GGGUGGAUCUCGUGACUAUTT against NADSYN1,inactive: 0.217
8,GAAGGAGUUUGCACAGAAATT against DHDH,inactive: 0.522
9,GUGUCACAAUUUUAUCUCATT against XPO7,inactive: 0.546
10,CAGCGGCUCAGGUGAAGAATT against ACADS,inactive: 0.121
11,CCACUGCCGUGAUUCAUGATT against CYP2D6,inactive: -0.0488
12,CGGACAUUCUAAUGCAUAUTT against HAGH,inactive: 0.647
13,GCUCAACAUGGAUCGAGAATT against CDH6,inactive: 0
14,GAAUUUUGAUGUCAUACGATT against DTNB,inactive: -0.142
15,GCGUGACAGUGAUCCUGUATT against SLC27A5,inactive: 0.441
16,CCCUCUACCCUCAAUGUUATT against SOCS5,inactive: 0.312
17,ACAGCUACAUCAUUCUGUATT against GSN,inactive: -0.222
18,GAGAUUCUCAGAUACCUGATT against APOBEC3B,inactive: 0
19,GGACCAUCCAGCUUCUGGATT against GALE,inactive: -0.153
